The record followed here is paper doi:10.1101/2020.09.01.276469.

Protein sequences, listed by entry. Tags and fused reporters are not part of them.
UniProt Q6NUF4, whole entry: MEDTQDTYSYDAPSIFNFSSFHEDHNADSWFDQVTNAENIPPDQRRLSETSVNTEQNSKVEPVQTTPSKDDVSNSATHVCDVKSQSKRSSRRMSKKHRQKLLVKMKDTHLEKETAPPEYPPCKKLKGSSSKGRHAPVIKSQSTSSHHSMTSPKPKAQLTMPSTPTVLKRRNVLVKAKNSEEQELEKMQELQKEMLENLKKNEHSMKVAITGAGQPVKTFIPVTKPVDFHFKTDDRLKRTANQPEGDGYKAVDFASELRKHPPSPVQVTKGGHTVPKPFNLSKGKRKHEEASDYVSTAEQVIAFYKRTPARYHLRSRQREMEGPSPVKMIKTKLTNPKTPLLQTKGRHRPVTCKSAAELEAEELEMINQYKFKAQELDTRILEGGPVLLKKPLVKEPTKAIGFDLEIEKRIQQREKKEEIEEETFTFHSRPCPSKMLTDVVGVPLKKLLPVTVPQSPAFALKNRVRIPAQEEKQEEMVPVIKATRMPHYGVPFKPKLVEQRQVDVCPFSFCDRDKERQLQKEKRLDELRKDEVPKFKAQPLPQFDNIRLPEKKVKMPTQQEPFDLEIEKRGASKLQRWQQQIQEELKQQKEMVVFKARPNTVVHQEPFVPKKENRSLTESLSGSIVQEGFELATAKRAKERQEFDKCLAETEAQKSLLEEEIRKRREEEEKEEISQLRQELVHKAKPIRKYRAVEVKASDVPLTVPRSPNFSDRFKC
UniProt P52297, whole entry: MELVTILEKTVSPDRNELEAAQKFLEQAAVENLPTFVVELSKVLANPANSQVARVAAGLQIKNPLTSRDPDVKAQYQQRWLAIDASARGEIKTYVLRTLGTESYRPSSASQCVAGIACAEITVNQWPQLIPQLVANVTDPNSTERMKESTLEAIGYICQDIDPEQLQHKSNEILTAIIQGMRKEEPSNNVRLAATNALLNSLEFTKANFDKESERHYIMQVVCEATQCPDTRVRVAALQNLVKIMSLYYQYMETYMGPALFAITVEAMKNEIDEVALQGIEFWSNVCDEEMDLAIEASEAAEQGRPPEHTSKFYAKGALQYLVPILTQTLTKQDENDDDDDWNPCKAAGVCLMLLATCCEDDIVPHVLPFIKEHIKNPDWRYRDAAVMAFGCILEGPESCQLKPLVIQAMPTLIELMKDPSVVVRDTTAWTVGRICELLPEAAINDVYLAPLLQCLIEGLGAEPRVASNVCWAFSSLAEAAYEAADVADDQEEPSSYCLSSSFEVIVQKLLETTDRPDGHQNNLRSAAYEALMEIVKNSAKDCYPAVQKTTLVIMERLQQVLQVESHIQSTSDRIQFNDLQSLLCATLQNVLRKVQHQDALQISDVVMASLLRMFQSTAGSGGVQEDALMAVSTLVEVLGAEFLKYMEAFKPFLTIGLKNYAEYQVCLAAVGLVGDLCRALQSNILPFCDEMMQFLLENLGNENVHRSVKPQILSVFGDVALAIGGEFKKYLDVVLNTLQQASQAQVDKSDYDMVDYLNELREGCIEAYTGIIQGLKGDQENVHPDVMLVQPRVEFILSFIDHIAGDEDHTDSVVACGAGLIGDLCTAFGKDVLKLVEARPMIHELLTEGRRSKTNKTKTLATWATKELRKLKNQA

Assay [1] has as its target Targeting Protein for XKlp2 (TPX2), full length, GFP-tagged (Xenopus laevis) (UniProt Q6NUF4). The assay is described as follows: SEC.
For assay [2] the target is unchanged. The assay can be described thus: SEC-MALS. (Size exclusion chromatography separates by hydrodynamic size, large species first.)

These are yes or no findings as the source states them, for the method shown. Some entries that bind do so weakly or less than the wild type.

On to importin-β (from UniProt P52297 1-876), for which the binding result in assay [1] and in assay [2] was “binds weakly” throughout.
